The values below come from PMC7465057.

Results are given in words; binding and its absence hold for the method and conditions named. In cells and extracts the contact can be indirect. Some entries that bind do so weakly or less than the wild type. Tags and fused reporters may be left off the sequences shown.

The assay concerns the target T1, CD83-3×Flag (human CD83, full length, with C-terminal 3×Flag tag) (human) (UniProt Q01151).
T1 sequence: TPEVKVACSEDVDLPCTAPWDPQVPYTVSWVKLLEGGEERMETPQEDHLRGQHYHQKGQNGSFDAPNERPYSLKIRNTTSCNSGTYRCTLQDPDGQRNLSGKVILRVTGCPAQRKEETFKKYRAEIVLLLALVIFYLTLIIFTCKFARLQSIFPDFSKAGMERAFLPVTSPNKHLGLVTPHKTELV
Briefly: co-IP; CD83-3×Flag, CD83 ΔID-3×Flag or control SKOV3 cells lysed, immunoprecipitated with anti-Flag magnetic beads; Western blot for Flag, TAK1, TAB1, β-actin. A general note: A western blot detects proteins with antibodies after separation by electrophoresis.

B1: mitogen-activated protein kinase kinase kinase 7 (MAP3K7) (protein, UniProt O43318 1-606)
chain: MSTASAASSSSSSSAGEMIEAPSQVLNFEEIDYKEIEVEEVVGRGAFGVVCKAKWRAKDVAIKQIESESERKAFIVELRQLSRVNHPNIVKLYGACLNPVCLVMEYAEGGSLYNVLHGAEPLPYYTAAHAMSWCLQCSQGVAYLHSMQPKALIHRDLKPPNLLLVAGGTVLKICDFGTACDIQTHMTNNKGSAAWMAPEVFEGSNYSEKCDVFSWGIILWEVITRRKPFDEIGGPAFRIMWAVHNGTRPPLIKNLPKPIESLMTRCWSKDPSQRPSMEEIVKIMTHLMRYFPGADEPLQYPCQYSDEGQSNSATSTGSFMDIASTNTSNKSDTNMEQVPATNDTIKRLESKLLKNQAKQQSESGRLSLGASRGSSVESLPPTSEGKRMSADMSEIEARIAATTAYSKPKRGHRKTASFGNILDVPEIVISGNGQPRRRSIQDLTVTGTEPGQVSSRSSSPSVRMITTSGPTSEKPTRSHPWTPDDSTDTNGSDNSIPMAYLTLDHQLQPLAPCPNSKESMAVFEQHCKMAQEYMKVQTEIALLLQRKQELVAELDQDEKDQQNTSRLVQEHKKLLDENKSLSTYYQQCKKQLEVIRSQQQKRQGTS
In the case of B1, the binding result is recorded as “binds”.

B2: TGF-beta activated kinase 1 (MAP3K7) binding protein 1 (TAB1) (protein, UniProt Q15750 1-504)
chain: MAAQRRSLLQSEQQPSWTDDLPLCHLSGVGSASNRSYSADGKGTESHPPEDSWLKFRSENNCFLYGVFNGYDGNRVTNFVAQRLSAELLLGQLNAEHAEADVRRVLLQAFDVVERSFLESIDDALAEKASLQSQLPEGVPQHQLPPQYQKILERLKTLEREISGGAMAVVAVLLNNKLYVANVGTNRALLCKSTVDGLQVTQLNVDHTTENEDELFRLSQLGLDAGKIKQVGIICGQESTRRIGDYKVKYGYTDIDLLSAAKSKPIIAEPEIHGAQPLDGVTGFLVLMSEGLYKALEAAHGPGQANQEIAAMIDTEFAKQTSLDAVAQAVVDRVKRIHSDTFASGGERARFCPRHEDMTLLVRNFGYPLGEMSQPTPSPAPAAGGRVYPVSVPYSSAQSTSKTSVTLSLVMPSQGQMVNGAHSASTLDEATPTLTNQSPTLTLQSTNTHTQSSSSSSDGGLFRSRPAHSLPPGEDGRVEPYVDFAEFYRLWSVDHGEQSVVTAP
In the case of B2, the binding entry is recorded as “binds”.
